Among the data in publication PMC2821298 are binding values, retold here.

Amino acid sequences for entries named in this document (tags omitted). A change or cut given only in a name is not applied to a line headed by its entry. Residues count along the entry.
UniProt P48356, residues 22-1162: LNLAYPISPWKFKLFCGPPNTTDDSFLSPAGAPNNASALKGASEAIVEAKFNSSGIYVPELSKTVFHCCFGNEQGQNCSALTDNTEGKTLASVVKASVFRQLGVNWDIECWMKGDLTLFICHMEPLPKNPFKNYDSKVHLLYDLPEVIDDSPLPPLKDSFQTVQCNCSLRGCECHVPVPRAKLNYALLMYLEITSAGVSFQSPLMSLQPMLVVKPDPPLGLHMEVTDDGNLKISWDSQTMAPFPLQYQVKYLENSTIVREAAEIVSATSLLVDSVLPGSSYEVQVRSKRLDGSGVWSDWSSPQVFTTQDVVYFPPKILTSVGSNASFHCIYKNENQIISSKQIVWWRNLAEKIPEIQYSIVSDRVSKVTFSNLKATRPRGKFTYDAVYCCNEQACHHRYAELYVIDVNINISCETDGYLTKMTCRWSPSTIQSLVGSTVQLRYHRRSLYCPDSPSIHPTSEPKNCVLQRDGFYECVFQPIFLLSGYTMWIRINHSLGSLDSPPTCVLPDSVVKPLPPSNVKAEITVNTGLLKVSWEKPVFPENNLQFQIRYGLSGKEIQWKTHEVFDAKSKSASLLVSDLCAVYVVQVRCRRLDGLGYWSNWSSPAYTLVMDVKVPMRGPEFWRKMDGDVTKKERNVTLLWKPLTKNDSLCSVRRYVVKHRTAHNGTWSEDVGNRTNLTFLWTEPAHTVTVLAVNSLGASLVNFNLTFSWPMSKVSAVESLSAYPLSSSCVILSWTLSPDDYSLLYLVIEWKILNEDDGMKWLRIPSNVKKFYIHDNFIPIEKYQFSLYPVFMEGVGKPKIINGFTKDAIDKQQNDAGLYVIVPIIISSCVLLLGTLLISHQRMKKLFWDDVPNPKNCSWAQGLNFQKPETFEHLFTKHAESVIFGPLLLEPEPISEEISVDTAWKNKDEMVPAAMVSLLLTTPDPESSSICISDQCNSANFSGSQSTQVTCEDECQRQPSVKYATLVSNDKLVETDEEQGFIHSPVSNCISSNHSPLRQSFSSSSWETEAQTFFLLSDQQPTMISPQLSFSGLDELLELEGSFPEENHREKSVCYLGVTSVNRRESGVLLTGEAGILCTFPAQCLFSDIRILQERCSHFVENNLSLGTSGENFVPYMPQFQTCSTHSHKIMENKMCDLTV
UniProt P41160, residues 22-167: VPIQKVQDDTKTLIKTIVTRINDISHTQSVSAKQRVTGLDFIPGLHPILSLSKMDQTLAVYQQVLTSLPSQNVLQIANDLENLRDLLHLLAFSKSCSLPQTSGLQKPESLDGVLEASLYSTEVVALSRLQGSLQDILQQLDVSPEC

This assay deals with leptin receptor, long isoform (LEPRb), wild type (mouse) (UniProt P48356). Kind of assay: binding of leptin-SEAP to cells (bound phosphatase activity, chemoluminescence); leptin-SEAP on RINm5F cells stably expressing WT LEPRb in 6-well plates; cells serum-starved 4 h, treated with leptin (20 ng/ml) for 2 h or not treated, acid-washed (0.5 M NaCl, 0.2 M acetic acid, pH 2.3) to remove receptor-bound leptin; nonspecific binding subtracted.

Results are given in words; binding and its absence hold for the method and conditions named. Some results given as binding are weak or reduced against the parent protein; the word gives no strength.

Consider “mouse leptin-secreted alkaline phosphatase (SEAP) chimeric protein (from UniProt P41160 22-167) (ligand)”, for which the binding entry was “binds”.
